Reference: PubChem BioAssay AID1487 (National Center for Advancing Translational Sciences (NCATS), 2009)
Some of the results follow. These are further read-outs of the screen, such as a control signal, another cell line or another target. No call is given for them. The list favours compounds with an active or inconclusive main result. The note in brackets gives the kind of curve behind each potency; many fits are weak.

Assay: qHTS Assay for Modulators of Lamin A Splicing
Conditions: HeLa LMNA splicing GFP/RFP minigene ratio, 48 h
Summary of the method: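 Read-out is the ratio of GFP to DsRed2 object intensity, acquired by 488 nm laser-scanning cytometry on HeLa lamin A-EGFP minigene reporter cells. Compound incubation 48 hrs at 37 °C in Opti-MEM with 2% FBS; DMSO 0.5% final.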

[1] = measured here: GFP splicing reporter channel
[2] = measured here: RFP viability control channel

Row | SMILES | AC50 [1] | AC50 [2]
1 | Cc1cc(NC(=O)c2cc(-c3ccncc3)nc3c(C)cccc23)no1 | 20 µM [falling, single point] | 35.5 µM [falling, single point]
2 | O=S(=O)(NCC(c1ccco1)N1CCN(c2ccc(F)cc2)CC1)c1ccc2c(c1)OCCO2 (configuration not stated) | 25.1 µM [rising, single point] | 22.4 µM [rising, partial curve]
3 | O=C(NCCS(=O)(=O)N1CCN(c2ccccc2F)CC1)c1cc(=O)c2ccccc2o1 | 0.01 µM [falling, full curve, poor fit] | 0.00355 µM [falling, full curve, poor fit]
4 | CC1CCCN(c2ccc(C(=O)NCc3ccc4c(c3)OCO4)cc2[N+](=O)[O-])C1 (configuration not stated) | – | 35.5 µM [rising, single point]
5 | NCCCCCCCCCCN | – | 0.0178 µM [falling, full curve, poor fit]
6 | COc1ccc(-c2cc(=O)oc3cc(OCC(=O)c4cccc([N+](=O)[O-])c4)ccc23)cc1 | – | 7.94 µM [rising, partial curve]
7 | COc1ccc(-c2nnc(SCc3cccnc3)o2)cc1 | 31.6 µM [rising, single point] | 15.8 µM [rising, single point]
8 | O=C(CCc1ccccc1)Nc1ccc(F)c([N+](=O)[O-])c1 | – | 0.0891 µM [falling, full curve, poor fit]
9 | O=c1c(S(=O)(=O)c2ccccc2)cn(Cc2ccc(F)cc2)c2cc(N3CCCC3)c(F)cc12 | 1.41 µM [rising, single point] | –
10 | CC(C)(C)c1ccc(OCc2ccc(C(=O)N/N=C3\CC4CC=CC34)cc2)cc1 (configuration not stated) | – | 15.8 µM [rising, single point]
11 | C(#Cc1ccccc1)C[N+]1(CC#Cc2cccc3ccccc23)CCCC1 | 12.6 µM [rising, single point] | –
12 | O=C(/C=C/c1ccc([N+](=O)[O-])cc1)N1CCN(S(=O)(=O)c2cccs2)CC1 | 35.5 µM [rising, single point] | –
13 | COCCCn1c(C)c(C(C)=O)cc(NC(=O)c2ccccc2)c1=O | 1.12 µM [rising, single point] | –
14 | COc1ccccc1-c1cc(C(F)(F)F)nc(N2CCOCC2)n1 | – | 17.8 µM [falling, single point]
15 | COCCNC(=O)C(c1ccc(Cl)cc1)N(C(=O)Cn1nnc2ccccc21)c1cccnc1 (configuration not stated) | – | 1.26 µM [falling, full curve, poor fit]
16 | CCCC1CC(C)(c2csc(Nc3ccc(OCC)cc3)n2)OC1=O (configuration not stated) | – | 20 µM [rising, single point]
17 | O=C(NC(NC(=S)Nc1ccccc1O)C(Cl)(Cl)Cl)c1ccco1 (configuration not stated) | – | 25.1 µM [rising, single point]
18 | CN(CC(=O)N1CCCCC1)S(=O)(=O)c1cccc2cccnc12 | – | 20 µM [rising, partial curve, poor fit]

Row | SMILES | AC50 [1] | AC50 [2]
19 | CC(=O)Nc1cc(S(=O)(=O)Nc2cccc(C)c2)c(C)cc1C | 0.708 µM [falling, single point] | –
20 | CCOC(=O)c1cc(S(=O)(=O)N2CCN(c3cccc(C)c3)C(C)C2)[nH]n1 (configuration not stated) | – | 22.4 µM [rising, single point]
21 | COc1ccccc1CNc1nc(-c2cccc(C#N)c2)nc2ccccc12 | 28.2 µM [falling, single point] | 22.4 µM [falling, single point]
22 | Cc1ccc2nc3sc(C(=O)Nc4ccc(F)cc4)cc3cc2c1 | – | 0.00112 µM [falling, full curve]
23 | COc1ccc(N2CCN(C(=S)Nc3ccc(S(N)(=O)=O)cc3)CC2)cc1 | 17.8 µM [falling, partial curve, poor fit] | 10 µM [falling, partial curve]
24 | Cc1ccc(C(=O)n2c3ccccc3c3ccccc32)cc1 | – | 3.98 µM [rising, full curve, poor fit]
25 | Cc1nn(C)c(-c2n[nH]c(=S)n2-c2ccccc2)c1Cl | 5.01 µM [falling, partial curve] | 0.1 µM [falling, full curve, poor fit]
26 | O=C(c1cccnc1)N1N=C(C2CC2)CC1(O)C(F)(F)F (configuration not stated) | 35.5 µM [falling, single point] | –
27 | O=S(=O)(c1ccc(Br)cc1)c1cnc2ccccc2n1 | 35.5 µM [falling, partial curve, poor fit] | 31.6 µM [falling, single point]
28 | Cc1ccc(NC2=NC3(CCCC3)N=C(N)N2)c(C)c1 | – | 12.6 µM [rising, single point]
29 | COc1cc(/C=N/O)cc(Br)c1OCc1ccc(Cl)cc1 | 22.4 µM [falling, single point] | 35.5 µM [falling, single point]
30 | Cc1ccc(CNC(=O)c2cnc(N3CCCC3)nc2C)cc1 | 0.00447 µM [rising, full curve, poor fit] | –
31 | CCCCN(CC)Cc1ccc(CNC(=O)Nc2ccc(Cl)cc2)o1 | – | 5.62 µM [rising, single point]
32 | CN(C(=O)CSc1nc2ccc(NC(=O)c3ccco3)cc2s1)c1ccccc1 | 0.00447 µM [rising, full curve, poor fit] | –
33 | CCn1c(=O)cc(OCC(=O)NCCCN2CCN(c3cccc(Cl)c3)CC2)c2ccccc21 | – | 22.4 µM [rising, single point]
34 | CN1CCN(CCCNC(=O)c2cc3c(-c4ccc(Cl)cc4)nn(C)c3s2)CC1 | 35.5 µM [rising, single point] | 35.5 µM [rising, single point]
35 | O=C(C[n+]1cccc(CNC(=O)c2ccc(OC(F)F)cc2)c1)c1ccccc1 | 2 µM [rising, full curve, poor fit] | 7.08 µM [rising, partial curve]
36 | CCc1ccc(C2=CC(c3cccc(OC)c3OC)n3c(nc4ccccc43)N2)cc1 (configuration not stated) | 0.0126 µM [rising, full curve, poor fit] | –

Reprinted at random: three records from the list, in no set order.
Row | SMILES | AC50 [1] | AC50 [2]
24 | Cc1ccc(C(=O)n2c3ccccc3c3ccccc32)cc1 | – | 3.98 µM [rising, full curve, poor fit]
36 | CCc1ccc(C2=CC(c3cccc(OC)c3OC)n3c(nc4ccccc43)N2)cc1 (configuration not stated) | 0.0126 µM [rising, full curve, poor fit] | –
19 | CC(=O)Nc1cc(S(=O)(=O)Nc2cccc(C)c2)c(C)cc1C | 0.708 µM [falling, single point] | –
